Test results from the supplement of paper PMC10849652.
The list shows a part of the results.

Protein sequences, listed by entry. Tags and fused reporters are not part of them. Lines headed by an entry give the natural chain unless they say otherwise; changes in a name come on top.
UniProt Q12933: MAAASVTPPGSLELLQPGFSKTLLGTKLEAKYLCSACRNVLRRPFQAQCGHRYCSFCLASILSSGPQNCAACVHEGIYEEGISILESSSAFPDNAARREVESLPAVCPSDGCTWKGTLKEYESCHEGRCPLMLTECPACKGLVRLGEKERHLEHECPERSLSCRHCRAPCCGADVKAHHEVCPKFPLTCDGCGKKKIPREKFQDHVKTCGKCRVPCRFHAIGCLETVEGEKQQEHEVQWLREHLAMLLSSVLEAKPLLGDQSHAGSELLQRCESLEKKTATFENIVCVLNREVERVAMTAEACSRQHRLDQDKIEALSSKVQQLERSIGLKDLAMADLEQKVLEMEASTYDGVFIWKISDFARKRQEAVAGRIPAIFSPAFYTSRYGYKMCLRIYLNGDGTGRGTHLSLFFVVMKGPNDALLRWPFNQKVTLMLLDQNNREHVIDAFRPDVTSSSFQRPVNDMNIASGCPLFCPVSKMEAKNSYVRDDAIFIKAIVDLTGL
UniProt O75157: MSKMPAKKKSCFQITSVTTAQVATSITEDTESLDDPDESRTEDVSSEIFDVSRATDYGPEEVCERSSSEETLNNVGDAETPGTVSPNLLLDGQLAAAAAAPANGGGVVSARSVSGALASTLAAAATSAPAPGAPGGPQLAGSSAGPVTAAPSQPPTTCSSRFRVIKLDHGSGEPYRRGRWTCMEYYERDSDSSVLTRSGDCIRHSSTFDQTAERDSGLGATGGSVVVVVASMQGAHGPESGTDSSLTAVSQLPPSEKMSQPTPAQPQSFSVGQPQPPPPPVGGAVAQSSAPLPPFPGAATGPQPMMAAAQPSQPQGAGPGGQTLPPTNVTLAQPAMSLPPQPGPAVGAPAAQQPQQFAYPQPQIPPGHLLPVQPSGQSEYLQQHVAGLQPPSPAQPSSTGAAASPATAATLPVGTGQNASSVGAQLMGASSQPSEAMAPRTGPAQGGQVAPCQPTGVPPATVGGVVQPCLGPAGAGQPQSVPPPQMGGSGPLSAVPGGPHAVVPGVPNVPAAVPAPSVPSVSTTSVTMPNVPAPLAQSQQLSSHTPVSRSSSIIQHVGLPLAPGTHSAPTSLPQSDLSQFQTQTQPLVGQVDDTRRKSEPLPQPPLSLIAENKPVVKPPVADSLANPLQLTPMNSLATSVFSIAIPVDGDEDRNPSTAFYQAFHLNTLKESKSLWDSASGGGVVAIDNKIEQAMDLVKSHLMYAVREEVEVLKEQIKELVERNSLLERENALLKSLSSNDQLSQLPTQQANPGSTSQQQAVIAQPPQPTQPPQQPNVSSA
UniProt O95985: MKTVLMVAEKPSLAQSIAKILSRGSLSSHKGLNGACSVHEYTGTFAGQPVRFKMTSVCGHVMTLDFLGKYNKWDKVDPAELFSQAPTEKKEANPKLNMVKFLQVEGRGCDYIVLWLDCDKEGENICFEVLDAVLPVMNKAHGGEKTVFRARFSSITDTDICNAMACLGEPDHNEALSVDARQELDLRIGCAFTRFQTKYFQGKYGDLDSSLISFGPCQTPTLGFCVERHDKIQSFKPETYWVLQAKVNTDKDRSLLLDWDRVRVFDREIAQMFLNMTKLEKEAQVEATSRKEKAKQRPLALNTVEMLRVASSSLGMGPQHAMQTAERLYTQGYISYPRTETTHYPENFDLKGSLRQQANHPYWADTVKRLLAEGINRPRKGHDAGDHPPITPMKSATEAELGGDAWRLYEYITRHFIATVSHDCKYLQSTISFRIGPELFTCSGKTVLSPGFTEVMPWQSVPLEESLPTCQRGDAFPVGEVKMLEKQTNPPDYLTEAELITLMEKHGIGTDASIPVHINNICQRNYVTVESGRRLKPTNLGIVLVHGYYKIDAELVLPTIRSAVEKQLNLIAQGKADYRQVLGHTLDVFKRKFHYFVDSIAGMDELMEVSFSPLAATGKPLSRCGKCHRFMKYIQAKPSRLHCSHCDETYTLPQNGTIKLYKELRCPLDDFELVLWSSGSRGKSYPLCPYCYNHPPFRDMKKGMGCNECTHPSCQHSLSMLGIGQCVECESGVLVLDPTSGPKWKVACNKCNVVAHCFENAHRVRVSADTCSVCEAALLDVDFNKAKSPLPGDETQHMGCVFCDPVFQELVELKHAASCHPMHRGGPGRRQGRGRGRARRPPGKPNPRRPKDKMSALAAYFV
UniProt P62995: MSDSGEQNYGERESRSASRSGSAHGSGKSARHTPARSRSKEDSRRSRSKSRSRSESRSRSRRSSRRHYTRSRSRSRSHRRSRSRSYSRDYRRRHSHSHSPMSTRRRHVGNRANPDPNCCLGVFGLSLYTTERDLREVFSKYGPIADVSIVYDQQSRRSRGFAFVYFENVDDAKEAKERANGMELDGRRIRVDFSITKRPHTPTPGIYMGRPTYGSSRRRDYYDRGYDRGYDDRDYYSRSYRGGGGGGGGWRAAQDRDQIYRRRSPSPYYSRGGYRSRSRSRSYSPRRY
UniProt O96008: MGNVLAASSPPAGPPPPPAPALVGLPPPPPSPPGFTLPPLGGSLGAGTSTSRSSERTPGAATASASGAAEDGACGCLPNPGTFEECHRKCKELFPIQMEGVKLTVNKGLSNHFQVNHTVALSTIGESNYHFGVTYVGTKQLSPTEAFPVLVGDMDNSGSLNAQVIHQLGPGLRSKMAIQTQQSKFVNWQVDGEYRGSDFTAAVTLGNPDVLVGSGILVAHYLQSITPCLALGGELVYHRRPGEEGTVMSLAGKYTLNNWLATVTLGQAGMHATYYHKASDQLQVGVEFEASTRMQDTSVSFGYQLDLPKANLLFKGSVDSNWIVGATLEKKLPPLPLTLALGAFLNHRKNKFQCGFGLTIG
UniProt P09493, whole entry, looked up: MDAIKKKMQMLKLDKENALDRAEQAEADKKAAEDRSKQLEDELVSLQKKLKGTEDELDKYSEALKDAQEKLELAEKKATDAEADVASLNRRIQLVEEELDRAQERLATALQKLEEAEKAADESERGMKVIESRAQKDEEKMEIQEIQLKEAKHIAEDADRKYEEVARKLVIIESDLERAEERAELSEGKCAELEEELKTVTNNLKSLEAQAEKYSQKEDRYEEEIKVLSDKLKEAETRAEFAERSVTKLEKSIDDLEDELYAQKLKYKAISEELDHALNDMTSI
UniProt Q02880: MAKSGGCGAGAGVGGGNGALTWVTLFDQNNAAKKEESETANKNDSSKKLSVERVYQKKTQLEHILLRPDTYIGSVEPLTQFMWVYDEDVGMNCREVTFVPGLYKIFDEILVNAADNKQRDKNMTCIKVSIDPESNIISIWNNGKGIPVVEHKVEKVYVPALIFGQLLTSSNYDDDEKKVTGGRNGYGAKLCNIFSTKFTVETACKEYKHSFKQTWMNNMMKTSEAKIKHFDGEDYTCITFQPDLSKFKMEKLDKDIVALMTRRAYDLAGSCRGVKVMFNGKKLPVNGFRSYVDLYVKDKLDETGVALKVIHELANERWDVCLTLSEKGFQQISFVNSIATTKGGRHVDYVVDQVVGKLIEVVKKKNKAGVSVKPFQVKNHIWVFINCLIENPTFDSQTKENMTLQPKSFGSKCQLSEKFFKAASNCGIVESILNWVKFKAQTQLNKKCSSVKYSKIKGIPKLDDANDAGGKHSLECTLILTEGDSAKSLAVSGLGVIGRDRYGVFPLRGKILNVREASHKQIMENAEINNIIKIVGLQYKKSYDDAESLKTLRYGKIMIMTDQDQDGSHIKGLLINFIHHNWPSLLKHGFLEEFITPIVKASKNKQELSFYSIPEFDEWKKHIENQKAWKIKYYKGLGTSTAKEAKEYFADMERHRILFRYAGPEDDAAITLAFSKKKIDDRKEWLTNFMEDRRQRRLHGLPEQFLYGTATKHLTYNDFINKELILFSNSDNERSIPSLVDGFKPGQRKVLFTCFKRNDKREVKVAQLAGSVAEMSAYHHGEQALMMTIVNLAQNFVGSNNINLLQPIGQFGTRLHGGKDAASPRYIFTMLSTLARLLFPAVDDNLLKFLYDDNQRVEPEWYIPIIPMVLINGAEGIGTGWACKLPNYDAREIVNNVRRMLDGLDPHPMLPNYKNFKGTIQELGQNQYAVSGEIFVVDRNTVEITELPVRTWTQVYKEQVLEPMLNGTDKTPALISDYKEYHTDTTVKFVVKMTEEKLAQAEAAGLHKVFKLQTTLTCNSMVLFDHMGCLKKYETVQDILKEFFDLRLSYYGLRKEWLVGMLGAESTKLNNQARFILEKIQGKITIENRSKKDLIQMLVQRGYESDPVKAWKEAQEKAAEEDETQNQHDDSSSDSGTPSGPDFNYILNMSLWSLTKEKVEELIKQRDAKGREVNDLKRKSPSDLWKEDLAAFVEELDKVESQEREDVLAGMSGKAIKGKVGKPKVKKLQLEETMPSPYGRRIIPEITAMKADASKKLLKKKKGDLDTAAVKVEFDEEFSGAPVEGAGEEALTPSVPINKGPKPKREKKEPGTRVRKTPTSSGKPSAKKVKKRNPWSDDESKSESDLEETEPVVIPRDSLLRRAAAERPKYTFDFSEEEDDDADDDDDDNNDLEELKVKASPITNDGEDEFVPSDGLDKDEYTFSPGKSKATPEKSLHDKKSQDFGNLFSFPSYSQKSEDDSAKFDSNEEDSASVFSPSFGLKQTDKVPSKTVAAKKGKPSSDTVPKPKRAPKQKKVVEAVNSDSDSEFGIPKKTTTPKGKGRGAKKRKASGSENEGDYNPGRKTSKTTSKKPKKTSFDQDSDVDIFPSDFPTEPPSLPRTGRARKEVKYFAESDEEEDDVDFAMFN
UniProt O14656: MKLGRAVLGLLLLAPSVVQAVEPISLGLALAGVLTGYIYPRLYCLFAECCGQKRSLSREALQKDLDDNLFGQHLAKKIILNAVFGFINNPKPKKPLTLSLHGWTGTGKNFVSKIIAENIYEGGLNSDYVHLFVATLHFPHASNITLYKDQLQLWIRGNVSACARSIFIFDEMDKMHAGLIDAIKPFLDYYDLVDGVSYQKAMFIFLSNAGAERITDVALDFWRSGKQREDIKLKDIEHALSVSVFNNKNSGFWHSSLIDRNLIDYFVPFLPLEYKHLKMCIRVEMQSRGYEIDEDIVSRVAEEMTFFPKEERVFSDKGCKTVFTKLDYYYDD
UniProt Q9ULW0, whole entry, looked up: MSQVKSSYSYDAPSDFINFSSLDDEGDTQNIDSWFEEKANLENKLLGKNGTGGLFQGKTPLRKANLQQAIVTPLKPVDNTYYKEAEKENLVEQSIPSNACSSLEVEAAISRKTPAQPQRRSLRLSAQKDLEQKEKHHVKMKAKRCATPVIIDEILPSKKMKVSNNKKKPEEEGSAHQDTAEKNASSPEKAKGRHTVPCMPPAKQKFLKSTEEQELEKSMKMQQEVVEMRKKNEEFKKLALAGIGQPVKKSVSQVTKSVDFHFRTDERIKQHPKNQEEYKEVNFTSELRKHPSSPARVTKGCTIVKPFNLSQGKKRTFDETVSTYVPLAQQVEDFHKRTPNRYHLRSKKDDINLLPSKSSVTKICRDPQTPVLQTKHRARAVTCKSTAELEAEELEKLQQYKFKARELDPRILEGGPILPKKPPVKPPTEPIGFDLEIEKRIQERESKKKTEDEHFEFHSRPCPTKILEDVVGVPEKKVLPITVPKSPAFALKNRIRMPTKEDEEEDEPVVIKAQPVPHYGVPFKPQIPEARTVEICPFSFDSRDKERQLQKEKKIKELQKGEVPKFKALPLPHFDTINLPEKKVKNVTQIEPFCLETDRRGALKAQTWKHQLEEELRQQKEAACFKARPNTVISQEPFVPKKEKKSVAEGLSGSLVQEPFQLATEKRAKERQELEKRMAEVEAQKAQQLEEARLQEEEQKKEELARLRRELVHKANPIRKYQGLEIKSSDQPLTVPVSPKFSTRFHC
UniProt P51580: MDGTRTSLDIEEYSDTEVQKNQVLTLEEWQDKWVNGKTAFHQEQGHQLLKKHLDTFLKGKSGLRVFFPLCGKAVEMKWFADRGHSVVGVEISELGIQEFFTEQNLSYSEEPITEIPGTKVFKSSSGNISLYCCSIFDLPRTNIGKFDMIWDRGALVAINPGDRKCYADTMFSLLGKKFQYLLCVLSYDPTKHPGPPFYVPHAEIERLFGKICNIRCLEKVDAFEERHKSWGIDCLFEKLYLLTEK
UniProt Q96F44: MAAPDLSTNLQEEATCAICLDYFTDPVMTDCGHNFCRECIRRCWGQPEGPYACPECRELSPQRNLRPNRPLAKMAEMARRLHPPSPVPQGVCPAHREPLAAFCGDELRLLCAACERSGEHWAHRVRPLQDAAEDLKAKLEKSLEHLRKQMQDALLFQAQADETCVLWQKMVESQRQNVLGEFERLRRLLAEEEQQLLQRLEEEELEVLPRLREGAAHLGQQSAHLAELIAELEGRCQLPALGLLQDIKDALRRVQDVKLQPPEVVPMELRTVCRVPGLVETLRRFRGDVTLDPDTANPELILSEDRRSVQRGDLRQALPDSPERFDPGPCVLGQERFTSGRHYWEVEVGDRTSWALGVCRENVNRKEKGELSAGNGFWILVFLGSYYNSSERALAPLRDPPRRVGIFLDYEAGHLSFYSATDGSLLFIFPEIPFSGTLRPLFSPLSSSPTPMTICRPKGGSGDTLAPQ

What was measured:
Assay in all cases: log2 fold change, soluble protein after heating vs DMSO (PISA); higher = thermal stabilisation; K562 cells, 10 uM, 30 min; active = over 0.2 and 3.5 SD of the protein, either way, in both replicates (recomputed)
[1] = compound: COC1=CC=C(C=C1)CN2C=CC3=C2C=C(C=C3)C(=O)NO
How it was run: (§1)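 Soluble protein was quantified by TMTpro 16plex LC-MS/MS after channel sums were equalised. It was obtained as the supernatant after 21,000xg for 90 min from pooled aliquots of K562 cells (2×10^6 cells/mL, 10 μM compound, 30 min) heated for 3 min across 48°C-58°C and extracted in PBS with 0.5% NP-40 at 4°C. Thermal stability values are relative to control samples and come from duplicates. They are given as log2 fold changes.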

filanesib = compound: CON(C)C(=O)N1N=C(c2cc(F)ccc2F)S[C@@]1(CCCN)c1ccccc1 [filanesib]
How it was run: as §1

zotarolimus = compound: CO[C@H]1C[C@@H]2CC[C@@H](C)[C@@](O)(O2)C(=O)C(=O)N2CCCC[C@H]2C(=O)O[C@H]([C@H](C)C[C@@H]2CC[C@H](n3cnnn3)[C@H](OC)C2)CC(=O)[C@H](C)/C=C(\C)[C@@H](O)[C@@H](OC)C(=O)[C@H](C)C[C@H](C)/C=C/C=C/C=C/1C [zotarolimus]
How it was run: as §1

idasanutlin = compound: COc1cc(C(=O)O)ccc1NC(=O)[C@@H]1N[C@@H](CC(C)(C)C)[C@](C#N)(c2ccc(Cl)cc2F)[C@H]1c1cccc(Cl)c1F [idasanutlin]
How it was run: as §1

alisertib = compound: COc1cc(Nc2ncc3c(n2)-c2ccc(Cl)cc2C(c2c(F)cccc2OC)=NC3)ccc1C(=O)O [alisertib]
How it was run: as §1

[2] = compound: COc1cc2nc(-c3cc(F)ccc3O)nc(N[C@@H]3CNC[C@H]3C(C)(C)O)c2cc1OC
How it was run: as §1

gefitinib = compound: COc1cc2ncnc(Nc3ccc(F)c(Cl)c3)c2cc1OCCCN1CCOCC1 [gefitinib]
How it was run: as §1

[3] = compound: COc1cccc2cc(-c3nc([C@H]4CC[C@H](C(=O)O)CC4)n4ncnc(N)c34)[nH]c12
How it was run: as §1

lapatinib = compound: CS(=O)(=O)CCNCc1ccc(-c2ccc3ncnc(Nc4ccc(OCc5cccc(F)c5)c(Cl)c4)c3c2)o1 [lapatinib]
How it was run: as §1

pictilisib = compound: CS(=O)(=O)N1CCN(Cc2cc3nc(-c4cccc5[nH]ncc45)nc(N4CCOCC4)c3s2)CC1 [pictilisib]
How it was run: as §1

[4] = compound: CS(=O)(=O)c1ccc(-c2cnc(N)c(C(=O)Nc3ccccc3)n2)cc1
How it was run: as §1

crizotinib = compound: C[C@@H](Oc1cc(-c2cnn(C3CCNCC3)c2)cnc1N)c1c(Cl)ccc(F)c1Cl [crizotinib]
How it was run: as §1

[5] = compound: C[C@@H]1COCCN1C2=NC(=NC(=C2)C3(CC3)S(=O)(=O)C)C4=C5C=CNC5=CC=C4
How it was run: as §1

[6] = compound: C[C@H](C1=CC=C(C=C1)C(=O)NC2=C3C=CNC3=NC=C2)N
How it was run: as §1

duvelisib = compound: C[C@H](Nc1ncnc2nc[nH]c12)c1cc2cccc(Cl)c2c(=O)n1-c1ccccc1 [duvelisib]
How it was run: as §1

gandotinib = compound: Cc1cc(Nc2cc(CN3CCOCC3)c3nc(C)c(Cc4ccc(Cl)cc4F)n3n2)n[nH]1 [gandotinib]
How it was run: as §1

tozasertib = compound: Cc1cc(Nc2cc(N3CCN(C)CC3)nc(Sc3ccc(NC(=O)C4CC4)cc3)n2)n[nH]1 [tozasertib]
How it was run: as §1

[7] = compound: Cc1cc(SCc2sc(-c3ccc(C(F)(F)F)cc3)nc2C)ccc1OCC(=O)O
How it was run: as §1

doramapimod = compound: Cc1ccc(-n2nc(C(C)(C)C)cc2NC(=O)Nc2ccc(OCCN3CCOCC3)c3ccccc23)cc1 [doramapimod]
How it was run: as §1

ispinesib = compound: Cc1ccc(C(=O)N(CCCN)[C@@H](c2nc3cc(Cl)ccc3c(=O)n2Cc2ccccc2)C(C)C)cc1 [ispinesib]
How it was run: as §1

Measured: log2 fold change

TRAF2 (UniProt Q12933)
inactive: [1] 0.015 | filanesib -0.026 | zotarolimus 0.015 | idasanutlin -0.027 | alisertib 0.013 | [2] 0.044 | gefitinib 0.042 | [3] 0.023 | lapatinib -0.009 | pictilisib 0.04 | [4] 0.028 | crizotinib 0.011 | [5] 0.027 | [6] -0.029 | duvelisib 0.024 | gandotinib -0.028 | tozasertib 0.035 | [7] -0.002 | doramapimod -0.008 | ispinesib 0.028

TSC22D2 (UniProt O75157)
inactive: [1] -0.08 | filanesib 0.061 | zotarolimus -0.02 | idasanutlin 0.049 | alisertib -0.194 | [2] 0.075 | gefitinib 0.06 | [3] -0.054 | lapatinib -0.071 | pictilisib 0.051 | [4] -0.071 | crizotinib 0.031 | [5] -0.045 | [6] -0.034 | duvelisib 0.093 | gandotinib 0.05 | tozasertib 0.053 | [7] -0.11 | doramapimod -0.004 | ispinesib 0.001

TOP3B (UniProt O95985)
inactive: [1] -0.009 | filanesib 0.173 | zotarolimus 0.051 | idasanutlin 0.065 | alisertib 0.13 | [2] -0.008 | gefitinib -0.002 | [3] -0.097 | lapatinib 0.039 | pictilisib -0.105 | [4] -0.019 | crizotinib -0.04 | [5] -0.18 | [6] 0.193 | duvelisib -0.045 | gandotinib 0.024 | tozasertib -0.096 | [7] 0.074 | doramapimod 0.104 | ispinesib -0.113

TRAPPC10 (UniProt P48553)
inactive: [1] -0.031 | filanesib 0.022 | zotarolimus 0.029 | idasanutlin -0.08 | alisertib -0.029 | [2] 0.032 | gefitinib 0.02 | [3] 0.054 | lapatinib 0.071 | pictilisib -0.093 | [4] 0.041 | crizotinib -0.093 | [5] -0.048 | [6] 0.009 | duvelisib -0.012 | gandotinib 0.07 | tozasertib -0.045 | [7] 0.085 | doramapimod 0.031 | ispinesib -0.053

TRA2B (UniProt P62995)
inactive: [1] -0.093 | filanesib 0.485 | zotarolimus -0.16 | idasanutlin 0.526 | alisertib -0.033 | [2] 0 | gefitinib -0.058 | [3] -0.106 | lapatinib 0.182 | pictilisib -0.052 | [4] -0.29 | crizotinib 0.105 | [5] -0.366 | [6] 0.128 | duvelisib -0.151 | gandotinib 0.476 | tozasertib 0.005 | [7] -0.017 | doramapimod 0.131 | ispinesib -0.261

TOMM40 (UniProt O96008)
inactive: [1] 0.064 | filanesib -0.061 | zotarolimus 0 | idasanutlin -0.064 | alisertib -0.034 | [2] -0.027 | gefitinib 0.005 | [3] 0.056 | lapatinib 0.012 | pictilisib -0.055 | [4] -0.025 | crizotinib 0.012 | [5] -0.002 | [6] -0.054 | duvelisib 0.021 | gandotinib -0.03 | tozasertib 0.016 | [7] -0.002 | doramapimod 0.029 | ispinesib 0.013

TPM1 isoform 4 (UniProt P09493)
inactive: [1] -0.03 | filanesib -0.035 | zotarolimus -0.007 | idasanutlin 0.033 | alisertib -0.097 | [2] 0.023 | gefitinib 0.036 | [3] -0.061 | lapatinib 0 | pictilisib -0.003 | [4] -0.021 | crizotinib 0.017 | [5] 0.007 | [6] -0.029 | duvelisib 0.003 | gandotinib -0.037 | tozasertib -0.026 | [7] -0.057 | doramapimod 0.013 | ispinesib 0.014

TOP2B (UniProt Q02880)
inactive: [1] 0.013 | filanesib 0.501 | zotarolimus 0.076 | idasanutlin 0.297 | alisertib -0.166 | [2] -0.158 | gefitinib -0.063 | [3] -0.316 | lapatinib 0.195 | pictilisib -0.066 | [4] 0.005 | crizotinib -0.125 | [5] -0.476 | [6] 0.583 | duvelisib -0.083 | gandotinib 0.16 | tozasertib 0.043 | [7] 0.04 | doramapimod 0.336 | ispinesib -0.33

TRRAP (UniProt Q9Y4A5)
inactive: [1] -0.037 | filanesib -0.011 | zotarolimus -0.016 | idasanutlin -0.048 | alisertib -0.069 | [2] -0.011 | gefitinib -0.022 | [3] 0.046 | lapatinib 0.03 | pictilisib -0.041 | [4] -0.007 | crizotinib 0.018 | [5] -0.009 | [6] -0.02 | duvelisib 0.021 | gandotinib -0.021 | tozasertib -0.017 | [7] -0.031 | doramapimod 0.015 | ispinesib 0.002

TOR1A (UniProt O14656)
inactive: [1] 0 | filanesib 0.001 | zotarolimus -0.03 | idasanutlin -0.011 | alisertib 0.028 | [2] 0.015 | gefitinib 0.006 | [3] 0.1 | lapatinib -0.017 | pictilisib 0 | [4] -0.009 | crizotinib 0.049 | [5] 0.042 | [6] -0.015 | duvelisib 0.014 | gandotinib -0.017 | tozasertib -0.026 | [7] -0.017 | doramapimod -0.024 | ispinesib 0.011

2 records picked at random from the list so far:
TPM1 isoform 4 (UniProt P09493)
inactive: [1] -0.03 | filanesib -0.035 | zotarolimus -0.007 | idasanutlin 0.033 | alisertib -0.097 | [2] 0.023 | gefitinib 0.036 | [3] -0.061 | lapatinib 0 | pictilisib -0.003 | [4] -0.021 | crizotinib 0.017 | [5] 0.007 | [6] -0.029 | duvelisib 0.003 | gandotinib -0.037 | tozasertib -0.026 | [7] -0.057 | doramapimod 0.013 | ispinesib 0.014

TOMM40 (UniProt O96008)
inactive: [1] 0.064 | filanesib -0.061 | zotarolimus 0 | idasanutlin -0.064 | alisertib -0.034 | [2] -0.027 | gefitinib 0.005 | [3] 0.056 | lapatinib 0.012 | pictilisib -0.055 | [4] -0.025 | crizotinib 0.012 | [5] -0.002 | [6] -0.054 | duvelisib 0.021 | gandotinib -0.03 | tozasertib 0.016 | [7] -0.002 | doramapimod 0.029 | ispinesib 0.013

Following part

TPX2 (UniProt Q9ULW0)
inactive: [1] -0.032 | filanesib 0.122 | zotarolimus -0.021 | idasanutlin 0.094 | alisertib -0.088 | [2] 0.126 | gefitinib 0.005 | [3] 0.127 | lapatinib 0.026 | pictilisib 0.068 | [4] 0.007 | crizotinib -0.122 | [5] 0.032 | [6] 0.019 | duvelisib -0.049 | gandotinib -0.071 | tozasertib -0.047 | [7] -0.024 | doramapimod 0.041 | ispinesib -0.131

TOX4 (UniProt O94842)
inactive: [1] -0.087 | filanesib 0.308 | zotarolimus 0 | idasanutlin 0.183 | alisertib 0.009 | [2] 0.092 | gefitinib -0.01 | [3] -0.048 | lapatinib 0.047 | pictilisib -0.128 | [4] -0.048 | crizotinib -0.007 | [5] -0.206 | [6] 0.242 | duvelisib -0.139 | gandotinib 0.178 | tozasertib -0.072 | [7] -0.052 | doramapimod 0.205 | ispinesib -0.121

TPCN1 isoform 3 (UniProt Q9ULQ1)
inactive: [1] -0.064 | filanesib 0.101 | zotarolimus -0.047 | idasanutlin -0.005 | alisertib -0.113 | [2] 0.086 | gefitinib 0.033 | [3] 0.093 | lapatinib -0.037 | pictilisib 0.053 | [4] 0.104 | crizotinib -0.023 | [5] 0.064 | [6] -0.036 | duvelisib 0.125 | gandotinib 0 | tozasertib -0.01 | [7] -0.034 | doramapimod 0.03 | ispinesib -0.255

TPMT (UniProt P51580)
inactive: [1] -0.088 | filanesib -0.101 | zotarolimus -0.016 | idasanutlin -0.058 | alisertib 0.035 | [2] 0.023 | gefitinib -0.001 | [3] 0.001 | lapatinib 0.057 | pictilisib 0.028 | [4] 0.011 | crizotinib 0.087 | [5] 0.045 | [6] -0.063 | duvelisib 0.055 | gandotinib 0 | tozasertib 0.011 | [7] -0.028 | doramapimod -0.06 | ispinesib 0.022

TPM3 isoform 4 (UniProt P06753)
inactive: [1] -0.116 | filanesib 0.062 | zotarolimus -0.093 | idasanutlin 0.02 | alisertib 0.029 | [2] 0.036 | gefitinib 0.06 | [3] 0.027 | lapatinib -0.001 | pictilisib -0.063 | [4] 0.019 | crizotinib 0.04 | [5] 0.046 | [6] -0.049 | duvelisib -0.008 | gandotinib -0.052 | tozasertib -0.059 | [7] -0.125 | doramapimod -0.03 | ispinesib 0.02

TRIM11 (UniProt Q96F44)
inactive: [1] -0.021 | filanesib 0.071 | zotarolimus 0.008 | idasanutlin -0.016 | alisertib 0.039 | [2] 0.097 | gefitinib 0.007 | [3] -0.035 | lapatinib 0.111 | pictilisib 0.094 | [4] -0.018 | crizotinib 0.084 | [5] 0.042 | [6] -0.032 | duvelisib -0.051 | gandotinib -0.218 | tozasertib -0.016 | [7] 0.1 | doramapimod 0.035 | ispinesib 0.033
